Measurements taken from patent US20050079503A1, “Binding domain of Siah (seven in absentia homolog) protein” (PETER MacCALLUM CANCER INSTITUTE, ST. VINCENT'S INSTITUTE …, priority 2001, published 2005).
Not every detail of the peptide structures is certain; ends, links or a residue may be inferred. No end group written: not given here.

Molecular target: T1, MBP-Siah (Mus musculus, UniProt P61092)
T1 construct: made in house
T1 sequence (P61092 80-282): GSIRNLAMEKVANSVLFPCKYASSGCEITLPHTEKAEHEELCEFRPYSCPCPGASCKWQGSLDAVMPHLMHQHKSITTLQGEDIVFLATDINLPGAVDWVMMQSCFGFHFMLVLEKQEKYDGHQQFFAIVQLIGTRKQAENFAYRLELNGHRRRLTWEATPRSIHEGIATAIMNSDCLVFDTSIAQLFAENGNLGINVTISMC
Assay: GST pull-down binding assay on GSH-Sepharose
Conditions: GST-PHYL108-130 on GSH-Sepharose mixed with MBP-Siah for 1 hour at 4° C; Coomassie blue SDS-PAGE

QQERTKLRPVAMVRPTVRVQPQL [PHYL108-130]
binding to Siah in pull-down: binds
